{"source": "PubChem BioAssay AID1487", "about": "(National Center for Advancing Translational Sciences (NCATS), 2009)", "test": "qHTS Assay for Modulators of Lamin A Splicing", "conditions": "HeLa LMNA splicing GFP/RFP minigene ratio, 48 h", "how_it_was_run": "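S3 HeLa stable clones carrying a lamin A-EGFP splicing minigene plus DsRed2 were seeded at 600 cells/well in Opti-MEM with 2% FBS, pin-dosed and incubated 48 h at 37°C. Acumen cytometry (488 nm) gave the GFP/RFP total-intensity ratio.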", "key": {"[1]": {"conditions": "measured here: GFP splicing reporter channel"}, "[2]": {"conditions": "measured here: RFP viability control channel"}}, "note": "The list shows a part of the results. These are further read-outs of the screen, such as a control signal, another cell line or another target. No call is given for them. The list favours compounds with an active or inconclusive main result. The note in brackets gives the kind of curve behind each potency; many fits are weak.", "data": [{"compound": "CCOc1ccc(C(=O)NCC(=O)N2CCC(C)CC2)cc1OCC", "values": [{"measurement": "AC50", "setting": "[1]", "result": "0.501 µM [falling, partial curve, poor fit]"}]}, {"compound": "COc1ccc(C(=O)NNC(=O)c2ccc(S(=O)(=O)N3CC(C)OC(C)C3)cc2)cc1", "note": "(configuration not stated)", "values": [{"measurement": "AC50", "setting": "[1]", "result": "6.31 µM [rising, single point]"}]}, {"compound": "Cc1cc(C(=O)NC2Cc3ccccc3C2)c(C)o1", "values": [{"measurement": "AC50", "setting": "[1]", "result": "0.0224 µM [rising, full curve, poor fit]"}, {"measurement": "AC50", "setting": "[2]", "result": "1.78 µM [rising, full curve, poor fit]"}]}, {"compound": "O=C(C1CC1)N1N=C(C2CCCCC2)CC1(O)C(F)(F)F", "note": "(configuration not stated)", "values": [{"measurement": "AC50", "setting": "[2]", "result": "5.62 µM [falling, single point]"}]}, {"compound": "COc1ccccc1-c1ccc2ncnc(N(C)Cc3ccco3)c2c1", "values": [{"measurement": "AC50", "setting": "[1]", "result": "15.8 µM [falling, partial curve]"}, {"measurement": "AC50", "setting": "[2]", "result": "11.2 µM [falling, partial curve]"}]}, {"compound": "CCN(C(=O)CSc1nnc(Cc2cccc3ccccc23)n1N)C1CCS(=O)(=O)C1", "note": "(configuration not stated)", "values": [{"measurement": "AC50", "setting": "[1]", "result": "0.00501 µM [falling, full curve, poor fit]"}, {"measurement": "AC50", "setting": "[2]", "result": "0.00355 µM [falling, full curve, poor fit]"}]}, {"compound": "CC(C)=CCC/C(C)=C/C=N/NC(=O)c1ccccc1[N+](=O)[O-]", "values": [{"measurement": "AC50", "setting": "[2]", "result": "0.447 µM [falling, full curve, poor fit]"}]}, {"compound": "Cc1ccccc1Nc1cc(C)c2c(O)cccc2n1", "values": [{"measurement": "AC50", "setting": "[1]", "result": "10 µM [rising, partial curve]"}, {"measurement": "AC50", "setting": "[2]", "result": "14.1 µM [rising, partial curve]"}]}, {"compound": "COc1ccccc1C1(O)CCN(CC(=O)Nc2nc(-c3ccccc3)cs2)CC1", "values": [{"measurement": "AC50", "setting": "[2]", "result": "20 µM [rising, partial curve, poor fit]"}]}, {"compound": "CC1(OC(=O)CCc2ccccc2)C(=O)C=C2C=C(c3ccc(C#N)cc3)N(Cc3ccco3)C=C2C1=O", "note": "(configuration not stated)", "values": [{"measurement": "AC50", "setting": "[2]", "result": "0.316 µM [falling, full curve, poor fit]"}]}, {"compound": "CCCn1c2ccc(/C(C)=N\\O)cc2c2cc(/C(C)=N/O)ccc21", "values": [{"measurement": "AC50", "setting": "[2]", "result": "35.5 µM [rising, single point]"}]}, {"compound": "CC(c1ccccc1)C1C(C#N)=C(N)OC2=C1C(=O)CC(C)(C)C2", "note": "(configuration not stated)", "values": [{"measurement": "AC50", "setting": "[1]", "result": "35.5 µM [rising, single point]"}, {"measurement": "AC50", "setting": "[2]", "result": "31.6 µM [rising, single point]"}]}, {"compound": "O=C(Nc1ccnc(-c2ccncc2)n1)c1ccccc1Cl", "values": [{"measurement": "AC50", "setting": "[1]", "result": "0.501 µM [rising, full curve]"}]}, {"compound": "C=CCn1c(O)c(N=NC(=O)CNC(=O)c2ccco2)c2ccccc21", "values": [{"measurement": "AC50", "setting": "[2]", "result": "11.2 µM [rising, partial curve]"}]}, {"compound": "Cc1cc(C(=O)Cn2nnc3ccccc3c2=O)c(C)n1-c1ccccc1F", "values": [{"measurement": "AC50", "setting": "[2]", "result": "10 µM [rising, partial curve]"}]}, {"compound": "COC(=O)c1ccc(/C=N/NS(=O)(=O)c2cc(C)ccc2C)cc1", "values": [{"measurement": "AC50", "setting": "[2]", "result": "1.41 µM [rising, partial curve, poor fit]"}]}, {"compound": "COC(=O)c1ccc2c(=O)[nH]c(CCl)nc2c1", "values": [{"measurement": "AC50", "setting": "[1]", "result": "1.78 µM [falling, partial curve, poor fit]"}]}, {"compound": "CCc1ccccc1NC(=O)Nc1cc(C(=O)NCc2cccc(F)c2)ccc1N1CCCC1", "values": [{"measurement": "AC50", "setting": "[1]", "result": "15.8 µM [falling, partial curve]"}, {"measurement": "AC50", "setting": "[2]", "result": "14.1 µM [falling, partial curve]"}]}, {"compound": "CN(C)[C@@H]1C(=O)C(C(N)=O)=C(O)[C@]2(O)C(=O)C3=C(O)c4c(O)ccc(Cl)c4[C@H](O)[C@H]3C[C@@H]12", "values": [{"measurement": "AC50", "setting": "[1]", "result": "0.282 µM [falling, single point]"}, {"measurement": "AC50", "setting": "[2]", "result": "0.282 µM [falling, partial curve, poor fit]"}]}, {"compound": "COc1ccc(-c2nc3c(c4c2C[C@H](c2ccccc2)OC4)CN(C(=O)c2cc(I)ccc2F)CC3)c(C)c1", "values": [{"measurement": "AC50", "setting": "[1]", "result": "0.501 µM [rising, single point]"}]}, {"compound": "Cc1ccc(NC(=S)N=Nc2c(O)n(C)c3ccc(S(=O)(=O)N4CCOCC4)cc23)cc1", "values": [{"measurement": "AC50", "setting": "[2]", "result": "6.31 µM [rising, partial curve]"}]}, {"compound": "CCCN(CCC)CC(O)COc1ccc2c(c1)OCO2", "note": "(configuration not stated)", "values": [{"measurement": "AC50", "setting": "[1]", "result": "22.4 µM [rising, partial curve, poor fit]"}]}, {"compound": "Cc1cc(C)nc(-n2ncc3c2CC(c2cccc(Cl)c2)CC3=O)n1", "note": "(configuration not stated)", "values": [{"measurement": "AC50", "setting": "[1]", "result": "0.251 µM [rising, full curve]"}, {"measurement": "AC50", "setting": "[2]", "result": "0.316 µM [rising, full curve]"}]}, {"compound": "O=C(Nc1ccc2c(c1)OCCO2)C1CCN(S(=O)(=O)c2ccc(Br)s2)CC1", "values": [{"measurement": "AC50", "setting": "[2]", "result": "22.4 µM [rising, single point]"}]}, {"compound": "O=C(NCCN1C(=O)S/C(=C\\c2ccccc2)C1=O)c1cc(S(=O)(=O)N2CCOCC2)c(Cl)cc1Cl", "values": [{"measurement": "AC50", "setting": "[2]", "result": "10 µM [rising, partial curve, poor fit]"}]}, {"compound": "Cc1ccc(C(=O)N2CCc3cc(CNC(=O)c4ccc(Br)cc4)ccc32)cc1", "values": [{"measurement": "AC50", "setting": "[1]", "result": "10 µM [falling, partial curve, poor fit]"}, {"measurement": "AC50", "setting": "[2]", "result": "0.0447 µM [falling, full curve, poor fit]"}]}, {"compound": "O=C(CSc1nc2ccccc2c(=O)n1-c1ccccc1Cl)Nc1cccc(S(=O)(=O)N2CCOCC2)c1", "values": [{"measurement": "AC50", "setting": "[1]", "result": "3.98 µM [rising, full curve, poor fit]"}, {"measurement": "AC50", "setting": "[2]", "result": "6.31 µM [rising, partial curve, poor fit]"}]}]}
